Patent US9526705B2, “Lipidated glycosaminoglycan particles and their use in drug and gene delivery for diagnosis and therapy” (Tel-Aviv University Future Technology Development L.P., priority 2001, dated 2016)
At least one compound was matched to its structure with a doubt left.

Assay: Efficiency of entrapment in gagomers (absorbency, ELISA plate reader)
Format: physicochemical
Description: The efficiency of entrapment of drugs or other bioactive agents in the gagomers and the kinetics of drug efflux for small molecular weight drugs were determined using absorbency in an ELISA plate reader, with appropriate wavelengths for each given entrapped entity.

O=C1OC2(c3ccc(O)cc3Oc3cc(O)ccc32)c2ccccc21 [Fluorescein]
Encapsulation Efficiency (%) By Kinetics (Micro-gagomers): 40.6 ± 5.8% | Encapsulation Efficiency (%) By Thermodynamics (Micro-gagomers): 49.6 ± 4.8% | Encapsulation Efficiency (%) By Kinetics (Nano-gagomers): 29.1 ± 6.1% | Encapsulation Efficiency (%) By Thermodynamics (Nano-gagomers): 37.4 ± 1.2%
